Hit rate of the full screen: of about 52,000 sequences, about 210 (0.4%) were called active.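 Rule for the calls: active = gene whose silencing raises cell survival under the drug, median off-target-corrected z-score across its silencing RNAs 2 or more; inactive = the rest.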 This is one part of the list.
Assay: Resistance to Poly (ADP-Ribose) Polymerase inhibitor: Gene Identification via Genome-wide siRNA Screen
Conditions: mouse BRCA2 R2336H ES cells, olaparib, CellTiter-Glo viability; active compounds read high
Procedure, shortened: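 Mouse BRCA2 R2336H ES cells were reverse-transfected with siRNA (20 nM final), treated at 48 h with 500 nM olaparib, and read by CellTiter-Glo after 72 h. Scores: MAD-based z per siRNA, median per gene, seed off-target correction.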

Sequence	z-score
GGAUUUGAGCGAUAUGAGCTT against Tex12	inactive: -0.669
GGUACUCGGAUUUGAUUAATT against Myo6	inactive: 0.399
GGAUGUCCGGAAGAUGUUUTT against Tnrc4	inactive: -0.279
GGCUCACAAUAUUGUAUACTT against Ndufa5	inactive: -0.425
GGGAAUUCUCCUGUUUGCUTT against Plp2	inactive: 0.0528
CAGCUUCUCAUAAAUCUUCTT against Olfr1385	inactive: 0.369
CCCUAACUUAAUAAAACCUTT against Triobp	inactive: -1.02
GGACCUGCUUGAACAUUACTT against Sh2d2a	inactive: 0.336
GGGAGCAUCAAAUUUUGAUTT against BC037674	inactive: 0.715
CCUCCACUUCGUGAGCGAATT against AI480653	inactive: -0.213
GGAGCAACCAUCCUUGUAUTT against 9030603L14Rik	inactive: -0.29
GGAGCUUCUUUUUUGUUUATT against Myog	inactive: 0.143
AAAGAUGAGAGAAGAACUCTT against C77604	inactive: 0.855
GGACUGGUUCAUCCUUGUGTT against G6pc	inactive: 1.6
GGCUGAAAAACCUUCAGCATT against Sparcl1	inactive: 0.205
GGCACAGAGAUUGAAGAUCTT against Sry	inactive: 0.537
GGAAUUGAUAUUUUGGUGATT against 2610207I16Rik	inactive: 0.554
GGCUCCUGGUUCUACAUCCTT against Itpr2	inactive: 0.774
GGGAUUGGCGGGUUUUGAUTT against 9330175E14Rik	inactive: -0.402
GGAGAACACUGAGGAAAAGTT against Olfr917	inactive: -0.303
GCGUGCCCAACAUUAUCAUTT against 1190005I06Rik	inactive: -0.0233
CCUGCAGCUGUAAAACCUGTT against Mt4	inactive: -0.909
GGUCAAAAAUCAAGUUUACTT against Zfp339	inactive: 1.1
GGCUCUAACUAUUAUGUGCTT against Psmc4	inactive: -3.27
GGAAAAGUCCCGUAUGGAGTT against Gcc1	inactive: 0.519
GGAUCAUGUUUGUUGACCCTT against E030025L21Rik	inactive: 2.14

Sequence	z-score
GCUUGAGCUCAUGGUCACUTT against Olfr1309	inactive: 1.08
GGAGAUCGACAGAGAAGCATT against Pcdh20	inactive: -1.73
GCUACAUACCCAAAUACAUTT against Trpc4ap	inactive: -0.682
GGAACUACUAGAAAAAGCATT against Prosc	inactive: -0.288
CGGGAUAUCAUUCUCCAUATT against Lnpep	inactive: 0.76
GGAAUUCCUGUUCGAUUUGTT against Ikbkap	inactive: -0.673
GUGUGCUGUCCUCAGUAGATT against Olfr1086	inactive: -0.606
GGACUAGUGUGAAAAAGGATT against Nsd1	inactive: 2.65
GGAGGUACCUAUUGAGAUCTT against Pte1	inactive: -0.545
CGCAAUGCUGGAUUAUUUATT against Ceacam2	inactive: 0.164
CCCAUUAAAUUCGAUAAGATT against 9130217G22Rik	inactive: 0.744
GGAUAAUUAUAGGAAGAGCTT against B130055D15Rik	inactive: -0.394
GCUUGCUAUACGUGGAGAUTT against H2afz	inactive: -0.167
GGCCUUUAAUUUCUUACACTT against Akt1s1	inactive: 1.15
GGGUCUCUUGUGGUACAUCTT against Cln3	inactive: -0.779
GGCAGUGUAUCACAACGUGTT against Commd10	inactive: -2.1
GGAAUAUUGGUUGUGAUGATT against Ralb	inactive: 1.39
GCGCGACAAAUCGUAGGCUTT against 5430432N15Rik	inactive: -1.16
CCGGCUUAUGCUCAACUUCTT against U46068	inactive: -0.133
GGAAGAUGAUUAUGAAGAUTT against Apc	inactive: 0.0201
GCGCAGAAGAGGCUAUUAUTT against 2300003P22Rik	inactive: -2.44
GCAUGGUUUACAAGGAAUGTT against Sca1	inactive: 0.307
GGAAAAGUGGAAUCAGAUUTT against Uty	inactive: -0.144
GCUUCGACAUUGUUAGUUATT against Ammecr1	inactive: 0.438
GCUUAUCACUUCAGAUAUCTT against Bmp2k	inactive: 0.402
GCAGAUAUUCUCUGUGCAGTT against Ccnf	inactive: 2.22

5 consecutive records from above, for reference:
Sequence	z-score
GCAUGGUUUACAAGGAAUGTT against Sca1	inactive: 0.307
GGAAAAGUGGAAUCAGAUUTT against Uty	inactive: -0.144
GCUUCGACAUUGUUAGUUATT against Ammecr1	inactive: 0.438
GCUUAUCACUUCAGAUAUCTT against Bmp2k	inactive: 0.402
GCAGAUAUUCUCUGUGCAGTT against Ccnf	inactive: 2.22

Further results.

Sequence	z-score
GGUGGUCUUCAAGUCUGACTT against D030010E02Rik	inactive: -1.68
GGACAGUGUUUUUUGUAGUTT against Pdcd4	inactive: -0.51
GGACCAAAAGAAAGUAGAATT against 2700008N14Rik	inactive: 1.13
CCAUGUCUUGAACUUGGAUTT against Stk22s1	inactive: 0.921
GGAUGGAAGAAGAAAGAAUTT against Cova1	inactive: -0.882
GGAGACAGAUGAAUGAACCTT against BC027057	inactive: 1.12
CCUUCUGGUAGUGAUUAUCTT against Olfr1365	inactive: -0.333
GGCUCUGCUCCUUCAAUGUTT against Dnase1l3	inactive: -0.99
GCUAUUAAAGAGGUAGUCATT against Lancl2	inactive: -0.318
GGUUGUCAAGAAAUUACCCTT against 4933417C16Rik	inactive: 0.237
GGGUGAUUGAUCACUACUUTT against Olfr234	inactive: 0.185
GGCUUGAGCUGGGAUACAATT against Hnrpdl	inactive: 0.6
GCACUGUGGGUGUUUUUAGTT against E130309D02Rik	inactive: 1.5
GGCAGCAGUUAUUGUGGAUTT against Ly6a	inactive: -0.0575
GGUGGAAGUUUGAUUGGUGTT against Ap3s2	inactive: -0.0643
GGGCAUUGGGAUCCUCAAUTT against Olfr139	inactive: -0.591
GGUCAAAACAUGUCCAAACTT against V1rd1	inactive: -0.22
GGGUCUCUAAGUGCUCCGUTT against Sfxn2	inactive: -1.09
CCGUAUAAACAUUUAUGAGTT against Bmp4	inactive: -0.384
GGGAUCUAAAGGCUGAAAATT against Mark4	inactive: 1.73
GGAAGACGUGAGAACAGCATT against Gig1	inactive: 0.167
GCUGAAAAUCACCCAGCAATT against 2600003E23Rik	inactive: 0.586
UUGUAGAAGCAUUCUUAUCTT against Olfr668	inactive: -0.915
GGCUGAAGCUCGACUGAAGTT against Abcf3	inactive: -1.66
GGAAAAAAUCACAUUGACUTT against Hist1h2ac	inactive: 0.641
CCUUCGAGUACACCUUGCUTT against Adamtsl2	inactive: -1.23

Sequence	z-score
GGAUUAGGAAAGAGAGAACTT against 4930519G04Rik	inactive: 0.231
GGUGAACCACGAGAAGAGUTT against Hk1	inactive: -0.525
GCCCAGUCUUGAUUAUCUATT against 0610006O14Rik	inactive: 1.01
GGAACACUUCAUCAGUCAGTT against Chrnb3	inactive: -2.41
GGUCCAGAGAAGGCAAGCUTT against Elf3	inactive: -0.0237
GGGUCGGGUUUCCUAAAGATT against A230048G03Rik	inactive: -0.0336
GGAUUAUUAGCACUGCUAGTT against Oaz2	inactive: -0.36
GGACCUGAGAGACUCUUUGTT against 1500005N04Rik	inactive: -0.738
GGAAGAAAAGUAUUACAGCTT against Itgb3bp	inactive: 0.115
GCACUAAACGUGAAGGAGUTT against Npl	inactive: -0.0845
GGGAUUUCACUCCCUAAAGTT against 1700024C24Rik	inactive: 0.501
CCAUCUGUAACGGAUCUGATT against 2010316F05Rik	inactive: -1.89
GGCACCCUAUUUGUCAACGTT against 6430402H13Rik	inactive: 0.0438
GCUAUGUGACCAGAACGAGTT against Tsc2	inactive: 0.313
GGUGGGACUUGAUUUUUCUTT against Lrrfip1	inactive: 1.29
GGAUCAGCCCAUCUACUUGTT against 1110060M21Rik	inactive: 0.574
GAGGAAAGAAUAGACAAGATT against Psx1	inactive: 0.366
GGCAAACUGUCUCUUCAGATT against Pim1	inactive: 0.612
GGAAGAAAUAGAGUUUUACTT against Ephx2	inactive: -0.248
GGCCAAAAAGGAGGCACCATT against Rps15	inactive: -2.85
CCUGUUAAGAUCAAUCUCATT against Ldh3	inactive: -0.0884
CCAUUAACUCUUUGAGUAUTT against Omg	inactive: -1.46
GGCUUGAAUGCCACAGCUGTT against Slc26a6	inactive: 0.265
GGCUGCAUGACCCAAUUGUTT against Olfr1221	inactive: -0.00602
GCUUCUUAUGAAAAGAUGCTT against Epc2	inactive: 0.0697
CCUCUAACAUACGUAAGUUTT against 1200016B17Rik	inactive: 0.364
